The test in a line: qHTS Assay to Find Inhibitors of Chronic Active B-Cell Receptor Signaling. As to conditions: ABC-DLBCL IkBa-CBG/CBR reporter, luminescence ratio (green luciferase fused to IkBa over red control in TMD8 lymphoma cells), 4 h. The essentials: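 Compounds up to 46 uM were incubated four hours with TMD8 cells whose green CBG68 luciferase is fused to IkappaBalpha; red CBR luminescence normalised the signal, and concentration-effect curves were fitted to fusion, red and ratio data.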
For orientation: Quantitative high-throughput screening tests each substance at several concentrations.

[1] abbreviates: measured here: CBR red luminescence, cell number.
Setting [2] is: measured here: IkBa-CBG green luminescence.

The source of these data is PubChem BioAssay AID493014 (National Center for Advancing Translational Sciences (NCATS), 2011).

This is one part of the list. Further columns of the screen follow, without active or inactive calls. Compounds called inactive in the main read-out are mostly missing here. The note in brackets gives the kind of curve behind each potency; many fits are weak.

The term AC50 denotes the concentration at which the activity in the assay is half-maximal. Regarding `Cc1ccccc1-c1nnn(CC(=O)NC(=O)NC2CCCC2)n1`, under setting [1], the AC50 was 20.6 µM [falling, partial curve, poor fit].
As for `O=C(NC(=S)NNC(=O)c1ccco1)c1ccc(F)cc1`, under setting [1], the concentration at half-maximal activity (AC50) was 10 µM [falling, single point].
Consider `O=C(CSc1ccccc1)N[C@@H](Cc1ccccc1)C(=O)O`, for which the AC50 under setting [1] is 8.91 µM [rising, partial curve, poor fit].
On the same count and under the same terms, the same measure for `CC(C)(C)c1[nH]nc2c1C(c1ccco1)C(C#N)=C(N)O2` (stereo not given): 17.8 µM [falling, single point]; for `C/C(=N\NC(=O)c1cc(-c2ccc(O)cc2)nc2ccccc12)c1cccnc1`: 3.98 µM [rising, full curve, poor fit]; for `Cn1cc(C(=O)Nc2ccc(F)c(Cl)c2)cn1`: 13 µM [rising, partial curve, poor fit].
On the same count and under the same terms, the result for `O=C(c1ccco1)N1CCN(Cc2ccc(Cl)cc2)CC1` reads 22.4 µM [rising, single point].
The same measure, in the same setting: the same measure for `COC(=O)C(NC(=O)c1ccccc1)(Nc1nc(C)cs1)C(F)(F)F` (stereo not given): 11.2 µM [rising, partial curve, poor fit]; for `C=CCc1cccc2cc(C(=O)NCc3cccnc3)c(=O)oc12`: 20.6 µM [rising, single point].
As for `O=C1Nc2ccc(NS(=O)(=O)c3cccs3)c3cccc1c23`, the AC50 was 11.2 µM [rising, partial curve] under setting [1] and 8.91 µM [falling, partial curve, poor fit] under setting [2].
On to `CC(C)Cc1nnc(NC(=O)CSc2ccccn2)s1`, for which the AC50 under setting [1] was 0.366 µM [rising, partial curve, poor fit].
In the case of `CN1C(=O)/C(=C/c2cccc(Cl)c2)Sc2ccc(C(=O)N3CCOCC3)cc21`, the concentration at half-maximal activity (AC50) under setting [1] is 22.4 µM [falling, partial curve, poor fit].
On the same count and under the same terms, the result for `CC(=Nc1ccc(Br)cc1)c1sc2ccccc2c1O` reads 10 µM [rising, partial curve, poor fit]; that for `C/C(Cc1ccccc1)=N\NC(=O)c1ccccn1`, 12.6 µM [falling, partial curve, poor fit].
Turning to `COc1ccc(CN(C(=O)CN2C(=O)C(C)Oc3ccccc32)C2CCCC2)c(OC)c1` (stereo not given), the AC50 under setting [1] was 29.1 µM [falling, single point].
On the same count and under the same terms, the result for `O=C(CN1CCOCC1)Nc1nc2cc([N+](=O)[O-])ccc2s1` reads 29.1 µM [falling, single point]; that for `O=C(CN1C(=O)CSC1=O)c1ccccc1`, 0.146 µM [falling, full curve, poor fit].
For `CCN1CCN(C(=O)CCCCCn2c(=O)[nH]c3cc(C(=O)OC)ccc3c2=O)CC1`, the AC50 is, setting by setting: under setting [1], 8.2 µM [falling, partial curve]; under setting [2], 9.2 µM [rising, partial curve, poor fit].
